Drawing on publication PMC11310286, this text covers binding for 3 molecules.

Results are given in words; binding and its absence hold for the method and conditions named. Binding seen in cells or lysates may run through a third protein. Some binding calls cover weakened binding; strength is not graded here. For some assays here: Tags and fused reporters may be left off the sequences shown.

Assay [1] deals with T1, CARD9 (endogenous, mouse) (mouse (endogenous in heart tissue and MPMs)) (UniProt A2AIV8).
T1 sequence: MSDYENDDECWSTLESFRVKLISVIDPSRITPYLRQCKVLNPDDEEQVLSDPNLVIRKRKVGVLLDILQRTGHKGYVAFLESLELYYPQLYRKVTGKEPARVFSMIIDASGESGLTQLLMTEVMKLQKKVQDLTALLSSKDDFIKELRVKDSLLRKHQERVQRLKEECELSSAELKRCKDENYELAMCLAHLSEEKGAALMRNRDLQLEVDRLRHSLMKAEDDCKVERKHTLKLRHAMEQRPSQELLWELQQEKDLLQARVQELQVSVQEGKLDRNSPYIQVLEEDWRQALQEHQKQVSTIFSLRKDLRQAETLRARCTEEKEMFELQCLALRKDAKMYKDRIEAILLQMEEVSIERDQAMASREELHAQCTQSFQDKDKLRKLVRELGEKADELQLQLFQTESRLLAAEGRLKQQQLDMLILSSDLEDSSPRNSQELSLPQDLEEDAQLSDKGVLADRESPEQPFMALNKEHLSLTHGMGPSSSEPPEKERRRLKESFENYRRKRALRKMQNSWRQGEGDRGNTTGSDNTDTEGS
Briefly: co-IP; lysates of primary mouse peritoneal macrophages; endogenous CARD9 precipitated with anti-CARD9 antibody, IgG as IP control; immunoblot; cells with or without ISO (20 uM, 1 h), from WT or Otud1-/- mice. For orientation: In western blotting, separated proteins are transferred to a membrane and probed.

The target in assay [2] is T1, CARD9 (endogenous, mouse) (mouse (endogenous in heart tissue and MPMs)). Briefly: co-IP; mouse heart tissue lysates (RIPA buffer); endogenous CARD9 precipitated with anti-CARD9 antibody and protein A+G-sepharose beads, IgG as IP control; immunoblot; mice sham or infused with ISO 30 mg/kg/day for 2 weeks, also chimeric mice with WT or Otud1-/- bone marrow.
The next assay concerns the target T2, Myc-CARD9, Q9H257.
T2 chain: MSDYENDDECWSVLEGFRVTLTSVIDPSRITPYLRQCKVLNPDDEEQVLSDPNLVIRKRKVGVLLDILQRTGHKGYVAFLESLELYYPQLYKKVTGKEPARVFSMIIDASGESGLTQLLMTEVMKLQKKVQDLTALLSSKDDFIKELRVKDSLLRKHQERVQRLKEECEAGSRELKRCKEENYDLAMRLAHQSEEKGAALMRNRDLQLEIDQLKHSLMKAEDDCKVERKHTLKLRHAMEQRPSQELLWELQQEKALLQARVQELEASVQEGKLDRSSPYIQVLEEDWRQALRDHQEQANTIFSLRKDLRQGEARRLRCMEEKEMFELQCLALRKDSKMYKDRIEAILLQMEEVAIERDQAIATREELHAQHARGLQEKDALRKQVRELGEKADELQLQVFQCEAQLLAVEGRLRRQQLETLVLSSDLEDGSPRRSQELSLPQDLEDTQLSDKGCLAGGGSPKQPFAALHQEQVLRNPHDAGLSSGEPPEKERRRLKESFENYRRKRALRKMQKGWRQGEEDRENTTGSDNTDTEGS
The assay can be described thus: co-IP; lysates of transfected HEK-293T cells; Myc-CARD9 precipitated with anti-Myc, immunoblot of Flag or GFP and Myc; for the BCL10 pair also co-transfected HA-Ub, HA-K33, Flag-OTUD1 or Flag-OTUD1-C320S and MG132 (10 uM) for 6 h. As to conditions: remark: other sources report otherwise.

B1: OTUD1 (endogenous, mouse) (enzyme, UniProt Q9CUB6 1-454)
chain: MQLYSSVCTHYPAGTPGPTAAAPPATAAAAFKVSLQSASPAAAAPEPDTGERPPAAATEPREAAAAAAMPAFSACFERSGSAAAPPGACSKPPLPPHFTSTAHIAVRALGAERLLLPPPSAPSPPRRGSSAWLLEELLRPDEPAAPNAVRDAPDRNFRLSEHRQALAASQHRAPAPAPVGPEPGAGPGSGPWGEERRAERSSRGWDRASGRSDASGSDALRRQDPEAEAHPVPAPARSSGEPAQNGEGEAVGTSRADPRDEKLALYLAEVERQDKYLRQRNKYRFHIIPDGNCLYRAVSKTVYGDQSLHRELREQTVHYIADHLDHFSPLIEGDVGEFIIAAAQDGAWAGYPELLAMGQMLNVNIHLTTGGRLESPTVSTMIHYLGPEDSLRPSIWLSWLSNGHYDAVFDHSYPNPEYDNWCKQTQIQKKRDEELAKSMAISLSKMYIEQNACS
In the case of B1, the binding result in assay [1] and in assay [2] was “binds” each time.

B2: GFP-BCL10, O95999 1-233 (protein)
chain: MEPTAPSLTEEDLTEVKKDALENLRVYLCEKIIAERHFDHLRAKKILSREDTEEISCRTSSRKRAGKLLDYLQENPKGLDTLVESIRREKTQNFLIQKITDEVLKLRNIKLEHLKGLKCSSCEPFPDGATNNLSRSNSDESNFSEKLRASTVMYHPEGESSTTPFFSTNSSLNLPVLEVGRTENTIFSSTTLPRPGDPGAPPLPPDLQLEEEGTCANSSEMFLPLRSRTVSRQ
With B2, the binding entry with Myc-CARD9, Q9H257 is “binds”.

B3: BCL10 (endogenous, mouse) (protein, UniProt Q9Z0H7 1-233)
chain: MEAPAPSLTEEDLTEVKKDALENLRVYLCEKIIAERHFDHLRAKKILSREDTEEISCRTSSRKRAGKLLDYLQENPRGLDTLVESIRREKTQSFLIQKITDEVLKLRNIKLEHLKGLKCSSCEPFAAGATNNLSRCNSDESNLSEKQRASTVMYHPEGESSTAPFFSMASSLNLPVLEVGRTENSSFSSATLPRPGDPGAPPLPPDLRLEEGGSCGNSSEMFLPLRSRALSRQ
For B3, the binding result in assay [1] and in assay [2] was “binds” each time.
